Data published in paper PMC8136785, “Short DNA/RNA heteroduplex oligonucleotide interacting proteins are key regulators of target gene silencing”.
Construct, isoform or probe ends are uncertain for at least one entry. For some assays here: The comparison behind a weaker result is the experiment's own reference, which may not be listed here. For some assays here: At least one verdict was read from the data and is not stated in words by the source. For some assays here: Protein sequences can lack the tags named with them. For some assays here: Where cells or extracts were used, other partners may take part.

Protein sequences, listed by entry. Tags and fused reporters are not part of them. Residues count along the entry.
UniProt P39749, whole entry: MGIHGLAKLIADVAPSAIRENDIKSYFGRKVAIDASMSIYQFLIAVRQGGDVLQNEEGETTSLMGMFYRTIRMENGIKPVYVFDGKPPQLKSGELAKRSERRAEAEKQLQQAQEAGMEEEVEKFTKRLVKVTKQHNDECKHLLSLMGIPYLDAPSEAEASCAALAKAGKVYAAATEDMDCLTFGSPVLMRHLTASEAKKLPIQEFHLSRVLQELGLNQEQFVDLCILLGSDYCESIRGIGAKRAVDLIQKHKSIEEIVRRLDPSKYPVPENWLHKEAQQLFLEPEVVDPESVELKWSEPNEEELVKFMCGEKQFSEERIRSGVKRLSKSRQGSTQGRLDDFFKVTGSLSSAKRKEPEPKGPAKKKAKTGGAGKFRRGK
UniProt P28352, whole entry: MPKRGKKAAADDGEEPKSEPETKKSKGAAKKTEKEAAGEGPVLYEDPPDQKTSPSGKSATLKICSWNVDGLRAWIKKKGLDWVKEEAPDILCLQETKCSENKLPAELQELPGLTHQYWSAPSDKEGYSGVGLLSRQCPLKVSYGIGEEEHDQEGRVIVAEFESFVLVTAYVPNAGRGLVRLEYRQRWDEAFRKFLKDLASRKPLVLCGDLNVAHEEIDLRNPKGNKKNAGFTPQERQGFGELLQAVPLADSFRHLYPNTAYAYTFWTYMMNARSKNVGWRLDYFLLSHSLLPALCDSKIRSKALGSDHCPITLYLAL
UniProt P28352, 2-317: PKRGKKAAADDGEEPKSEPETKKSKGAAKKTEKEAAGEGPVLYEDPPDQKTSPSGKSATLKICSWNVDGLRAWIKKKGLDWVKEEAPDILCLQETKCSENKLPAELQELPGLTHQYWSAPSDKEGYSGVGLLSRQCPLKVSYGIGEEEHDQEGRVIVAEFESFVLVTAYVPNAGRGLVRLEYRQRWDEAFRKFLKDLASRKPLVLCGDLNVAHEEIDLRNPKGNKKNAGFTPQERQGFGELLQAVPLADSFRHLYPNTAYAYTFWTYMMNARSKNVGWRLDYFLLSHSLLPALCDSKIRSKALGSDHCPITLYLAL

Columns and labels:
[1] = target: FEN1 (UniProt P39749); assay: EMSA; conditions: EMSA: 1 uM nucleic acid, 20 min 37 C, N buffer (100 mM NaCl, 20 mM Tris-acetate pH 8.0, 0.1 mM EDTA, 0.01% Triton X) or M buffer, recombinant protein, protein details: GST cleaved with PreScission, DNA:RNA hybrid
[2] = target: APEX1 (UniProt P28352); assay: EMSA; conditions: EMSA: 1 uM nucleic acid, 20 min 37 C, N buffer (100 mM NaCl, 20 mM Tris-acetate pH 8.0, 0.1 mM EDTA, 0.01% Triton X) or M buffer, recombinant protein, protein details: His (pET28a), DNA:RNA hybrid
[3] = target: T1, ANXA5 (annexin A5) (UniProt P48036); assay: EMSA; conditions: EMSA: 1 uM nucleic acid, 20 min 37 C, N buffer (100 mM NaCl, 20 mM Tris-acetate pH 8.0, 0.1 mM EDTA, 0.01% Triton X) or M buffer, recombinant protein, protein details: His (pET28a), DNA:RNA hybrid
T1 sequence (looked up, limits assumed): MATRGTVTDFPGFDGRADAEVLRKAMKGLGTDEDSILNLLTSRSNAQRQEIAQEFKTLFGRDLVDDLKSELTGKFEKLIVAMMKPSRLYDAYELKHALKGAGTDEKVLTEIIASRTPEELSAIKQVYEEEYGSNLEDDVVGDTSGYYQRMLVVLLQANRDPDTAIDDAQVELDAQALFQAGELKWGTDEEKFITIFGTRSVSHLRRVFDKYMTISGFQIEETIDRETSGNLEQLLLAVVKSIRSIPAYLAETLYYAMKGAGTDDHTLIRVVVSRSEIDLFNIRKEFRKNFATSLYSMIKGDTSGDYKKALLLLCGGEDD

[4] = target: T2, CA8 (carbonic anhydrase 8) (UniProt P28651); assay: EMSA; conditions: EMSA: 1 uM nucleic acid, 20 min 37 C, N buffer (100 mM NaCl, 20 mM Tris-acetate pH 8.0, 0.1 mM EDTA, 0.01% Triton X) or M buffer, recombinant protein, protein details: His (pET28a), DNA:RNA hybrid
T2 sequence: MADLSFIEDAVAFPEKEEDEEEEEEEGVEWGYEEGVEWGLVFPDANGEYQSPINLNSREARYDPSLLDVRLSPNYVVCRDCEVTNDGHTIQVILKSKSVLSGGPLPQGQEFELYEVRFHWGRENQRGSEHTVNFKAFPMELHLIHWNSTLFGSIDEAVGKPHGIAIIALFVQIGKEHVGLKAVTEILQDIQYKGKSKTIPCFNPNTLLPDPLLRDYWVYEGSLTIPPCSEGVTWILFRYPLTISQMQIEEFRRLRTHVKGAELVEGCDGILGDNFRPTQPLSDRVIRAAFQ

[5] = target: FEN1 in cell lysate (UniProt P39749); assay: pull-down; conditions: stronger than ANXA5 and CA8, as N1, protein in an extract, label: 5' biotin-TEG on ASO, DNA:RNA hybrid
[6] = target: T3, CA8 in cell lysate (UniProt P28651); assay: pull-down
T3 sequence (looked up, limits assumed): T2 sequence

[7] = target: T4, ANXA5 in cell lysate (UniProt P48036); assay: pull-down
T4 sequence (looked up, limits assumed): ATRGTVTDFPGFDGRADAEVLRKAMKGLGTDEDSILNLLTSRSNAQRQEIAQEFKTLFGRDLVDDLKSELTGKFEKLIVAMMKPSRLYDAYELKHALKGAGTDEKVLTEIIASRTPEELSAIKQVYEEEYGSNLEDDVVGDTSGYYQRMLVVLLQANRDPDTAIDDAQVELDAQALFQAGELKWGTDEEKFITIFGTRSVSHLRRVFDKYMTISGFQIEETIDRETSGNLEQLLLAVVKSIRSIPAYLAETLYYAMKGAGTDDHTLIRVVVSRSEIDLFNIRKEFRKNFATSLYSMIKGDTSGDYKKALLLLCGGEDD

[8] = target: APEX1 in cell lysate (UniProt P28352); assay: pull-down; conditions: stronger than ANXA5 and CA8, as N1, protein in an extract, label: 5' biotin-TEG on ASO, DNA:RNA hybrid
[9] = N buffer (100 mM NaCl, no Mg2+), ASO full PS, LNA 3+3 gapmer, '5'(L) read as LNA 5-methyl-C, cRNA PS-PO mixed, 2'-OMe 3+3, 5' tocopherol
[10] = vs PS-ASO, full PO LNA gapmer ASO, full PO 2'-OMe 3+3 cRNA, 5' tocopherol
[11] = vs PS-ASO, full PO LNA gapmer ASO, full PS 2'-OMe 3+3 cRNA, 5' tocopherol
[12] = vs PS-ASO, as N1 with full PO LNA gapmer ASO
[13] = weak affinity, as N1, protein in an extract, label: 5' biotin-TEG on ASO, DNA:RNA hybrid
[14] = no Toc, as N7 without tocopherol

“CTAGTTCACTGAATGC / GCAUUCAGUGAACUAG [Toc-Malat1 HDO (16-mer)]”: binds ([1]; M buffer (8 mM MgCl2), ASO full PS, LNA 3+3 gapmer, '5'(L) read as LNA 5-methyl-C, cRNA PS-PO mixed, 2'-OMe 3+3, 5' tocopherol); binds [1, 9]; binds ([2]; M buffer (8 mM MgCl2), slightly weaker than N buffer, larger smeared complex, ASO full PS, LNA 3+3 gapmer, '5'(L) read as LNA 5-methyl-C, cRNA PS-PO mixed, 2'-OMe 3+3, 5' tocopherol). “CTAGTTCACTGAATGC / GCAUUCAGUGAACUAG [Toc-Malat1 HDO (16-mer)]”: binds [2, 9].

“CTAGTTCACTGAATGC / GCAUUCAGUGAACUAG [Toc-Malat1 HDO, PO-ASO / PO cRNA]”: binds more weakly [3, 10]; binds more weakly [4, 10].

“CTAGTTCACTGAATGC / GCAUUCAGUGAACUAG [Toc-Malat1 HDO, PO-ASO / PS cRNA]”: binds more weakly [3, 11]; binds more weakly [4, 11].

“CTAGTTCACTGAATGC / GCAUUCAGUGAACUAG [Toc-Malat1 HDO, PO-ASO / PS-PO cRNA]”: binds more weakly [3, 12]; binds more weakly [4, 12].

“CTAGTTCACTGAATGC / GCAUUCAGUGAACUAG [Toc-Malat1 HDO, PS-ASO / full PO cRNA]”: binds ([1]; as N1 with full PO cRNA); binds ([3]; as N1 with full PO cRNA); binds ([4]; as N1 with full PO cRNA).

“CTAGTTCACTGAATGC / GCAUUCAGUGAACUAG [Toc-Malat1 HDO, PS-ASO / full PS cRNA]”: binds ([1]; as N1 with full PS cRNA); binds ([2]; as N1 with full PS cRNA); binds ([3]; as N1 with full PS cRNA). “CTAGTTCACTGAATGC / GCAUUCAGUGAACUAG [Toc-Malat1 HDO, PS-ASO / full PS cRNA]”: binds ([4]; as N1 with full PS cRNA).

“CTAGTTCACTGAATGC / GCAUUCAGUGAACUAG [Toc-biotin-HDO (Malat1)]”: binds [5]; binds more weakly [6, 13]; binds more weakly [7, 13]. “CTAGTTCACTGAATGC / GCAUUCAGUGAACUAG [Toc-biotin-HDO (Malat1)]”: binds [8].

CTAGTTCACTGAATGC [biotin-ASO (Malat1)]: binds more weakly ([6]; similar to the weak Toc-HDO binding, full PS, LNA 3+3 gapmer, '5'(L) read as LNA 5-methyl-C, protein in an extract, label: 5' biotin-TEG, synthetic backbone); binds more weakly ([7]; barely bound, full PS, LNA 3+3 gapmer, '5'(L) read as LNA 5-methyl-C, protein in an extract, label: 5' biotin-TEG, synthetic backbone).

“GCATTGGTATTCA / UGAAUACCAAUGC [ApoB HDO (13-mer, no Toc)]”: binds more weakly [1, 14]; binds more weakly [2, 14]; binds more weakly [4, 14].
